Measurements taken from article doi:10.1101/2020.03.14.989954.
No constants are given. Whether binding was seen depends on the method and setting. In cells and extracts the contact can be indirect.

Chains of the proteins cited; added tags and fusions are not shown.
UniProt Q92963: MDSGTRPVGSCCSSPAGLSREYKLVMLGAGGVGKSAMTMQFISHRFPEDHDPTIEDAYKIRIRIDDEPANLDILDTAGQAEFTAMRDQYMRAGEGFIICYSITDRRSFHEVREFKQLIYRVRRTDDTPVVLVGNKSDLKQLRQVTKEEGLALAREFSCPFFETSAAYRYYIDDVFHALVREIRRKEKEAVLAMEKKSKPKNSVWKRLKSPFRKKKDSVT

Tests used:
Assay in all cases: co-IP
[1] = target: T1, KLHL8 (UniProt Q9P2G9)
T1 sequence: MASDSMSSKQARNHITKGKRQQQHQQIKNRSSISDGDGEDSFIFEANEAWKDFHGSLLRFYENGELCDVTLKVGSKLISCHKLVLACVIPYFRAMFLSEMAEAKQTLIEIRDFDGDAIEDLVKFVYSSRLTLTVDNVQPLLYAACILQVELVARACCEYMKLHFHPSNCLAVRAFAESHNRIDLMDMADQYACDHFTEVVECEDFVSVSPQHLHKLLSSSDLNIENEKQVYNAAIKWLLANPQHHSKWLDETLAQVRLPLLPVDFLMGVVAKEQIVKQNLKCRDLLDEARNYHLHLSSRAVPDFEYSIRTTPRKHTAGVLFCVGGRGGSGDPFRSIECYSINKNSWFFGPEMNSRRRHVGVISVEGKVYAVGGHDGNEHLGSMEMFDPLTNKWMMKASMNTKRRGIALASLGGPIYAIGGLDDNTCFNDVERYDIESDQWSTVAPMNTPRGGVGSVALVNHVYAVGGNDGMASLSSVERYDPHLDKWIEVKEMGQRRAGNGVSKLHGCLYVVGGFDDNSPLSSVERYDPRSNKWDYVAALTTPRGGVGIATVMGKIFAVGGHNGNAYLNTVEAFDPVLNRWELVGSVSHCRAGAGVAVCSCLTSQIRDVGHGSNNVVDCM

[2] = target: T2, KLHL9 (UniProt Q9P2J3)
T2 sequence: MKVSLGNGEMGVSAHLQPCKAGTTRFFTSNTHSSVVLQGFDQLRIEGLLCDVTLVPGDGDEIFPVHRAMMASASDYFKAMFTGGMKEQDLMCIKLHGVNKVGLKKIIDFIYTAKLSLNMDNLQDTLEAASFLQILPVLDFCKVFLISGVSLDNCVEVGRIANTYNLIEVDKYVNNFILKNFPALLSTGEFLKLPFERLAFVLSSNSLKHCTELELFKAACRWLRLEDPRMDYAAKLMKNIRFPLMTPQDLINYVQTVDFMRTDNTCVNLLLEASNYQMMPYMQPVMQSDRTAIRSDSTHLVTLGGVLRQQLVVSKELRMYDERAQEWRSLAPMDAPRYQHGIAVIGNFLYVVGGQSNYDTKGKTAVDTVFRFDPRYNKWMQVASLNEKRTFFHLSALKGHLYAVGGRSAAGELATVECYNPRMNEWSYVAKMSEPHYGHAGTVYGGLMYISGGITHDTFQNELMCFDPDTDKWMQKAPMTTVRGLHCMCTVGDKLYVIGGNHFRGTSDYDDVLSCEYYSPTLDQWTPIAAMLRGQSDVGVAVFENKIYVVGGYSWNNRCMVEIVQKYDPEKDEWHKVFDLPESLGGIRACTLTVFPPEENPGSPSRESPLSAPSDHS

[3] = target: T3, KLHL26 (UniProt Q53HC5)
T3 sequence: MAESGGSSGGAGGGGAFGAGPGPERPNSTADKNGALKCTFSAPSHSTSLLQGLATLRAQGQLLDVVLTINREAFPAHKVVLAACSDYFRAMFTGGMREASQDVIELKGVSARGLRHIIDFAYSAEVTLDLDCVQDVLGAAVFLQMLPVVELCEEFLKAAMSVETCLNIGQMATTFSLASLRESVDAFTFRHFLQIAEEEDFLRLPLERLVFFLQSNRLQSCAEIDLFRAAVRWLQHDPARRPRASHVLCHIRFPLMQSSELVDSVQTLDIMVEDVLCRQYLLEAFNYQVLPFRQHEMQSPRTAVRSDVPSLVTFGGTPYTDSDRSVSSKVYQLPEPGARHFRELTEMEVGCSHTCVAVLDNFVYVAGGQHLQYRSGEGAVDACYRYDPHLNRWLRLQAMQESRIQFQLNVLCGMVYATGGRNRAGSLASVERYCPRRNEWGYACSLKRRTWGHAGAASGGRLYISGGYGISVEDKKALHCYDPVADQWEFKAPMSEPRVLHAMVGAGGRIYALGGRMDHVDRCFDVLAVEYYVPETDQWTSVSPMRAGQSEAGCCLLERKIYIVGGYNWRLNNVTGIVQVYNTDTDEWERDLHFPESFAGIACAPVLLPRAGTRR

Measured: binding

RIT1, wild type, full length (Figs 1H, 3B, 3G, 4B) (from UniProt Q92963 1-219)
no binding: all assays above
